Experimental data reported in paper PMC8060220, “Comparative study of hyperpure chlorine dioxide with two other irrigants regarding the viability of periodontal ligament stem cells” (Clinical Oral Investigations, 2020).

Test system: PDLSCs
Experiment: Impedimetry (xCELLigence), 10 min treatment, time course and viability
Assay type: cell-based, human
Conditions: long-term
Procedure: The effect of irrigative agents on the viability of the PDLSC cells was assessed using the xCELLigence SP System (Roche Applied Science, Indianapolis, IN, USA), which monitors the cellular events by measuring electrical impedance across interdigitating gold microelectrodes integrated on the bottom of tissue culture plates (E-plates). The detected impedance is influenced by the viability and morphology of the attached cells on the surface of the electrodes. The presence of cells due to their insulating plasma membranes constrain the electrical current and lead to an increase in the electrode impedance. The impedance depends on the number of the attached cells and on the dimensional change of the attached cells on the electrodes. More cells attached to the electrode or spreading cause a larger increase in the impedance. The change in impedances represented as “cell index” (CI) which is a relative and dimensionless value. Briefly, the experimental protocol was as follows: to register the background value, 100 μL of culture medium was added to each well and impedance was recorded for 1 h to gain constant background curves of impedance. In the following step, PDLSCs were seeded in 10^5 cells/mL density. […] Normalized impedance to the control calculated by the integrated software (RTCA 1.2—Roche Applied Science, Indianapolis, IN, USA) was used for the statistical evaluation. […]

[O][Cl+][O-] [ClO2, chlorine dioxide]
time at which consistent increase of the CI curve was detected (0.00025% ClO2): 30 h | time at which consistent increase of the CI curve was detected (0.0025% ClO2): 50 h
